{"source": "the supplement of paper PMC7125110", "parents": {"B1": {"name": "glmS ribozyme (parent)", "chain": "AUAAAAGCGCCAGAACUACAGAAAUGUAGUUGACGAGGAGGAGGUUUAUCGAAUUUUCGGCGGAUGCCUCCAAA"}}, "note": "± gives the standard error. Many entries were measured with a wide error.", "data": [{"variants_of": "B1", "experiment": "self-cleavage kobs at 160 uM GlcN6P; higher = faster cleavage; RNA array", "details": "with glucosamine-6-phosphate", "outline": "(§1)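 Tiles of sequenced MiSeq chips were imaged over ~14 h at 37 °C. On them, barcoded ribozyme variants had been transcribed in situ by E. coli RNA polymerase and were tracked via a hybridised Cy3 probe while glucosamine-6-phosphate (40 μM to 10 mM) in HEPES/KCl/Mg(OAc)2 buffer flowed in. Per-tile medians, normalised to baseline and to non-cleaving reference variants, were fit to one- or two-exponential decays for kobs, and weighted Michaelis–Menten fits gave kcat and KM.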", "units": {"self-cleavage kobs at 160 uM GlcN6P": "s⁻¹"}, "values": [{"variant": "G59A", "self-cleavage kobs at 160 uM GlcN6P": "< 1e-05"}, {"variant": "G40U A64G", "self-cleavage kobs at 160 uM GlcN6P": "2.28e-05 ± 1.2e-05"}, {"variant": "C68U C71U", "self-cleavage kobs at 160 uM GlcN6P": "1.37e-05 ± 9e-06"}, {"variant": "C50G U55G C67G", "self-cleavage kobs at 160 uM GlcN6P": "2.71e-05 ± 1.6e-05"}, {"variant": "C67U C68A", "self-cleavage kobs at 160 uM GlcN6P": "2.18e-05 ± 1.3e-05"}, {"variant": "C67A U69G", "self-cleavage kobs at 160 uM GlcN6P": "3.02e-05 ± 1.6e-05"}, {"variant": "G43A C68G", "self-cleavage kobs at 160 uM GlcN6P": "2.98e-05 ± 1.8e-05"}, {"variant": "G32C C58A", "self-cleavage kobs at 160 uM GlcN6P": "2.13e-05 ± 1.7e-05"}, {"variant": "A48U C70G", "self-cleavage kobs at 160 uM GlcN6P": "1.94e-05 ± 1.7e-05"}, {"variant": "A33G C50G G59U", "self-cleavage kobs at 160 uM GlcN6P": "3.55e-05 ± 2e-05"}, {"variant": "C50U C70A", "self-cleavage kobs at 160 uM GlcN6P": "2.54e-05 ± 1.7e-05"}, {"variant": "U49A C50U C61G", "self-cleavage kobs at 160 uM GlcN6P": "2.81e-05 ± 2.2e-05"}, {"variant": "C50U U57C C67G", "self-cleavage kobs at 160 uM GlcN6P": "3.42e-05 ± 3.1e-05"}]}, {"variants_of": "B1", "experiment": "self-cleavage kobs at 10000 uM GlcN6P; higher = faster cleavage; RNA array", "details": "with glucosamine-6-phosphate", "outline": "as §1", "units": {"self-cleavage kobs at 10000 uM GlcN6P": "s⁻¹"}, "values": [{"variant": "A24U", "self-cleavage kobs at 10000 uM GlcN6P": "0.059 ± 0.045"}, {"variant": "A48G C61U", "self-cleavage kobs at 10000 uM GlcN6P": "2.43e-05 ± 1.6e-05"}, {"variant": "G32A A53U U65C", "self-cleavage kobs at 10000 uM GlcN6P": "2.99e-05 ± 1.7e-05"}, {"variant": "A33C A42G U65A", "self-cleavage kobs at 10000 uM GlcN6P": "3.04e-05 ± 2.4e-05"}, {"variant": "C16U A53G U56G", "self-cleavage kobs at 10000 uM GlcN6P": "0.0403 ± 0.023"}, {"variant": "C10U U54C", "self-cleavage kobs at 10000 uM GlcN6P": "1.78e-05 ± 1.3e-05"}, {"variant": "G32C C58U", "self-cleavage kobs at 10000 uM GlcN6P": "3.01e-05 ± 1.9e-05"}, {"variant": "U46A C58A", "self-cleavage kobs at 10000 uM GlcN6P": "2.36e-05 ± 1.6e-05"}, {"variant": "G9A U55G", "self-cleavage kobs at 10000 uM GlcN6P": "1.33e-05 ± 9.6e-06"}, {"variant": "A48U C70G", "self-cleavage kobs at 10000 uM GlcN6P": "1.44e-05 ± 9.1e-06"}, {"variant": "C16G C34G G60U C61G U65A C67G", "self-cleavage kobs at 10000 uM GlcN6P": "2.78e-05 ± 1.6e-05"}, {"variant": "G40A A42C", "self-cleavage kobs at 10000 uM GlcN6P": "2.34e-05 ± 1.8e-05"}, {"variant": "C50G G62U G66C C70A", "self-cleavage kobs at 10000 uM GlcN6P": "2.46e-05 ± 2e-05"}, {"variant": "C11A C58A", "self-cleavage kobs at 10000 uM GlcN6P": "1.71e-05 ± 1.2e-05"}, {"variant": "A6G U46C", "self-cleavage kobs at 10000 uM GlcN6P": "1.78e-05 ± 1.8e-05"}, {"variant": "U30C G35A C50G C61U A64G", "self-cleavage kobs at 10000 uM GlcN6P": "3.47e-05 ± 2.5e-05"}, {"variant": "A14C C50G A64G", "self-cleavage kobs at 10000 uM GlcN6P": "2.13e-05 ± 1.8e-05"}, {"variant": "G7A C16U U54C", "self-cleavage kobs at 10000 uM GlcN6P": "2.21e-05 ± 2e-05"}, {"variant": "A14C C16G A53U", "self-cleavage kobs at 10000 uM GlcN6P": "1.77e-05 ± 1.4e-05"}]}, {"variants_of": "B1", "experiment": "self-cleavage kobs at 2500 uM GlcN6P; higher = faster cleavage; RNA array", "details": "with glucosamine-6-phosphate", "outline": "as §1", "units": {"self-cleavage kobs at 2500 uM GlcN6P": "s⁻¹"}, "values": [{"variant": "A48G C61U", "self-cleavage kobs at 2500 uM GlcN6P": "4.12e-05 ± 2.2e-05"}, {"variant": "C61A U65G C67U", "self-cleavage kobs at 2500 uM GlcN6P": "3.59e-05 ± 2.1e-05"}, {"variant": "U17G", "self-cleavage kobs at 2500 uM GlcN6P": "0.0095 ± 0.005"}, {"variant": "G51U C61A C68A", "self-cleavage kobs at 2500 uM GlcN6P": "3.18e-05 ± 2.3e-05"}, {"variant": "A33G G51A G62U C68A", "self-cleavage kobs at 2500 uM GlcN6P": "6.3e-05 ± 3.8e-05"}, {"variant": "U54C C58G", "self-cleavage kobs at 2500 uM GlcN6P": "1.31e-05 ± 1.2e-05"}, {"variant": "G7A C70U", "self-cleavage kobs at 2500 uM GlcN6P": "1.9e-05 ± 9.7e-06"}, {"variant": "C11A A14C A53G", "self-cleavage kobs at 2500 uM GlcN6P": "2.14e-05 ± 1.7e-05"}, {"variant": "A12G G59A", "self-cleavage kobs at 2500 uM GlcN6P": "1.79e-05 ± 1.6e-05"}, {"variant": "C50G U55G C67G", "self-cleavage kobs at 2500 uM GlcN6P": "3.54e-05 ± 2.3e-05"}, {"variant": "A12C A33C G66A", "self-cleavage kobs at 2500 uM GlcN6P": "2.59e-05 ± 1.8e-05"}, {"variant": "C11A U55A U56C", "self-cleavage kobs at 2500 uM GlcN6P": "2.44e-05 ± 1.5e-05"}, {"variant": "A33C U45G U46C", "self-cleavage kobs at 2500 uM GlcN6P": "3.62e-05 ± 2e-05"}, {"variant": "A12C U54A C67U", "self-cleavage kobs at 2500 uM GlcN6P": "0.0013 ± 0.00072"}, {"variant": "U30G A48U C71A", "self-cleavage kobs at 2500 uM GlcN6P": "2.97e-05 ± 1.8e-05"}, {"variant": "G29U U30A U46G", "self-cleavage kobs at 2500 uM GlcN6P": "3.53e-05 ± 2.2e-05"}, {"variant": "A15C", "self-cleavage kobs at 2500 uM GlcN6P": "0.01 ± 0.0052"}, {"variant": "A42G U54C", "self-cleavage kobs at 2500 uM GlcN6P": "0.0168 ± 0.0094"}, {"variant": "G32U G35C U46A C67G C68A", "self-cleavage kobs at 2500 uM GlcN6P": "0.00106 ± 0.00066"}, {"variant": "U54C U56G", "self-cleavage kobs at 2500 uM GlcN6P": "0.00392 ± 0.0029"}, {"variant": "C10A U55A C67G", "self-cleavage kobs at 2500 uM GlcN6P": "3.99e-05 ± 2.9e-05"}, {"variant": "G13U C50G G59A", "self-cleavage kobs at 2500 uM GlcN6P": "3.01e-05 ± 2.7e-05"}, {"variant": "C8U G37U C71G", "self-cleavage kobs at 2500 uM GlcN6P": "3.77e-05 ± 3.2e-05"}, {"variant": "A12U C67G C71A", "self-cleavage kobs at 2500 uM GlcN6P": "3.57e-05 ± 2.6e-05"}, {"variant": "C10U A14U C70G", "self-cleavage kobs at 2500 uM GlcN6P": "3.73e-05 ± 2.7e-05"}, {"variant": "A14U G29A G62A U69G", "self-cleavage kobs at 2500 uM GlcN6P": "4.08e-05 ± 2.3e-05"}, {"variant": "G32C C58U", "self-cleavage kobs at 2500 uM GlcN6P": "3.4e-05 ± 2e-05"}, {"variant": "G32A A33U", "self-cleavage kobs at 2500 uM GlcN6P": "2.05e-05 ± 1.3e-05"}, {"variant": "U46A C58A", "self-cleavage kobs at 2500 uM GlcN6P": "2.86e-05 ± 2.8e-05"}, {"variant": "A14C G41C", "self-cleavage kobs at 2500 uM GlcN6P": "2.26e-05 ± 1.6e-05"}, {"variant": "G9A A14G", "self-cleavage kobs at 2500 uM GlcN6P": "1.43e-05 ± 1.3e-05"}, {"variant": "A14C U30A A33U", "self-cleavage kobs at 2500 uM GlcN6P": "0.000124 ± 8.1e-05"}, {"variant": "G38A A42U C50G C67G", "self-cleavage kobs at 2500 uM GlcN6P": "4.65e-05 ± 3.3e-05"}, {"variant": "A33G C50G G59U", "self-cleavage kobs at 2500 uM GlcN6P": "3.87e-05 ± 2.3e-05"}, {"variant": "A39C A48C U55A", "self-cleavage kobs at 2500 uM GlcN6P": "2.93e-05 ± 1.6e-05"}, {"variant": "A12C A64U", "self-cleavage kobs at 2500 uM GlcN6P": "2.2e-05 ± 1.2e-05"}, {"variant": "A15G U31C G44A", "self-cleavage kobs at 2500 uM GlcN6P": "2.41e-05 ± 2.2e-05"}, {"variant": "G40A A42C", "self-cleavage kobs at 2500 uM GlcN6P": "1.71e-05 ± 1.3e-05"}, {"variant": "U30C U55G U56C", "self-cleavage kobs at 2500 uM GlcN6P": "1.66e-05 ± 1.3e-05"}, {"variant": "C50G G62U G66C C70A", "self-cleavage kobs at 2500 uM GlcN6P": "2.91e-05 ± 1.8e-05"}, {"variant": "U47C C67U C71A", "self-cleavage kobs at 2500 uM GlcN6P": "6.85e-05 ± 3.5e-05"}, {"variant": "C16G U69A C70U", "self-cleavage kobs at 2500 uM GlcN6P": "2.49e-05 ± 2.5e-05"}, {"variant": "C10A A52U C68A", "self-cleavage kobs at 2500 uM GlcN6P": "4.7e-05 ± 2.5e-05"}, {"variant": "A12U A42G U56A C67U", "self-cleavage kobs at 2500 uM GlcN6P": "0.0029 ± 0.0017"}, {"variant": "A12G U46A G66U", "self-cleavage kobs at 2500 uM GlcN6P": "4.13e-05 ± 2.4e-05"}, {"variant": "G9A A42G", "self-cleavage kobs at 2500 uM GlcN6P": "1.81e-05 ± 1.7e-05"}, {"variant": "U31A C50A C70U C71U", "self-cleavage kobs at 2500 uM GlcN6P": "3.51e-05 ± 1.9e-05"}, {"variant": "U30C G35A C50G C61U A64G", "self-cleavage kobs at 2500 uM GlcN6P": "0.000778 ± 0.00042"}, {"variant": "U45A A53G", "self-cleavage kobs at 2500 uM GlcN6P": "0.0366 ± 0.019"}, {"variant": "U30C G40U U56G", "self-cleavage kobs at 2500 uM GlcN6P": "2.77e-05 ± 2.7e-05"}, {"variant": "U31A G63U U69G", "self-cleavage kobs at 2500 uM GlcN6P": "4.25e-05 ± 2.9e-05"}, {"variant": "C50U U54A", "self-cleavage kobs at 2500 uM GlcN6P": "1.87e-05 ± 1.5e-05"}, {"variant": "C61A C70U", "self-cleavage kobs at 2500 uM GlcN6P": "1.49e-05 ± 1.5e-05"}, {"variant": "U30A U49G C68U", "self-cleavage kobs at 2500 uM GlcN6P": "4.32e-05 ± 2.9e-05"}, {"variant": "A53C G66U C70G", "self-cleavage kobs at 2500 uM GlcN6P": "0.000126 ± 7e-05"}, {"variant": "A15G G59C C68G", "self-cleavage kobs at 2500 uM GlcN6P": "4.66e-05 ± 2.4e-05"}]}]}
